Some results were stated once for a whole list of compounds, not compound by compound.
Tests used:
Type in all cases: in vivo
Plutella xylostella = Plutella xylostella (diamond back moth) larvae test on artificial diet; conditions: 200 ppm (concentration in well 18 ppm), L2 larvae, larval mortality and growth regulation after 6 days
Spodoptera littoralis = Spodoptera littoralis (Egyptian cotton leafworm) leaf disc spray test; conditions: cotton leaf discs sprayed at 200 ppm; mortality, feeding behavior and growth regulation 3 days after treatment
Heliothis virescens = Heliothis virescens (tobacco budworm) egg test on artificial diet; conditions: eggs on artificial diet, 200 ppm (concentration in well 18 ppm); egg mortality, larval mortality and growth regulation after 4 days
Diabrotica balteata = Diabrotica balteata (corn root worm) larvae test on artificial diet; conditions: 200 ppm (concentration in well 18 ppm), L2 larvae, larval mortality and growth regulation after 5 days

Row | SMILES | control of Plutella xylostella (Plutella xylostella) | control of Spodoptera littoralis (Spodoptera littoralis) | control of Heliothis virescens (Heliothis virescens) | control of Diabrotica balteata (Diabrotica balteata)
1 | Cc1cc(C(O)(c2ccc(C(F)(F)F)cc2)C(F)(F)F)cc(C)c1NC(=O)c1cccc(NC(=O)c2ccnc(Cl)c2)c1 (stereo not drawn) [Compound A2] | at least 80% |  |  | 
2 | Cc1cc(C(O)(c2ccc(C(F)(F)F)cc2)C(F)(F)F)cc(C)c1NC(=O)c1cccc(NC(=O)c2cccc(F)c2F)c1 (stereo not drawn) [Compound A6] | at least 80% | at least 80% | at least 80% | at least 80%
3 | Cc1cc(C(O)(c2ccc(Cl)cc2)C(F)(F)F)cc(C)c1NC(=O)c1cccc(NC(=O)c2cccc(F)c2F)c1 (stereo not drawn) [Compound A7] | at least 80% | at least 80% | at least 80% | 
4 | Cc1cc(C(O)(c2ccc(F)cc2)C(F)(F)F)cc(C)c1NC(=O)c1cccc(NC(=O)c2cccc(F)c2F)c1 (stereo not drawn) [Compound A8] |  | at least 80% | at least 80% | 
5 | Cc1cc(C(O)(c2ccccc2)C(F)(F)F)cc(C)c1NC(=O)c1cccc(NC(=O)c2cccc(F)c2F)c1 (stereo not drawn) [Compound A10] |  |  | at least 80% | 
6 | Cc1cc(C(O)(c2ccc(C(F)(F)F)cc2)C(F)(F)F)cc(C)c1NC(=O)c1cccc(NC(=O)c2ccc(F)cc2)c1 (stereo not drawn) [Compound A12] | at least 80% | at least 80% | at least 80% | at least 80%
7 | Cc1cc(C(O)(c2ccc(Cl)cc2)C(F)(F)F)cc(C)c1NC(=O)c1cccc(NC(=O)c2ccc(F)cc2)c1 (stereo not drawn) [Compound A13] | at least 80% | at least 80% | at least 80% | at least 80%
8 | Cc1cc(C(O)(c2ccc(F)cc2)C(F)(F)F)cc(C)c1NC(=O)c1cccc(NC(=O)c2ccc(F)cc2)c1 (stereo not drawn) [Compound A14] |  |  | at least 80% | 
9 | Cc1cc(C(O)(c2ccc(C(F)(F)F)cc2)C(F)(F)F)cc(C)c1NC(=O)c1cccc(NC(=O)c2ccccc2)c1 (stereo not drawn) [Compound A18] | at least 80% | at least 80% | at least 80% | 
10 | Cc1cc(C(O)(c2ccc(Cl)cc2)C(F)(F)F)cc(C)c1NC(=O)c1cccc(NC(=O)c2ccccc2)c1 (stereo not drawn) [Compound A19] | at least 80% | at least 80% | at least 80% | 
11 | Cc1cc(C(O)(c2ccccc2)C(F)(F)F)cc(C)c1NC(=O)c1cccc(NC(=O)c2ccccc2)c1 (stereo not drawn) [Compound A22] |  |  | at least 80% | 

— US8618173B2, “Insecticidal compounds” (Syngenta Crop Protection, LLC, priority 2007, dated 2013)
